Laboratory results published in publication PMC9174544.
Like-named read-outs stand apart in the source and are kept apart here. These are yes or no findings as the source states them, for the method shown. Binding seen in cells or lysates may run through a third protein. Some binding calls cover weakened binding; strength is not graded here. One block for each molecule: values may come before it.

Chains of the proteins cited; added tags and fusions are not shown.
UniProt P52732: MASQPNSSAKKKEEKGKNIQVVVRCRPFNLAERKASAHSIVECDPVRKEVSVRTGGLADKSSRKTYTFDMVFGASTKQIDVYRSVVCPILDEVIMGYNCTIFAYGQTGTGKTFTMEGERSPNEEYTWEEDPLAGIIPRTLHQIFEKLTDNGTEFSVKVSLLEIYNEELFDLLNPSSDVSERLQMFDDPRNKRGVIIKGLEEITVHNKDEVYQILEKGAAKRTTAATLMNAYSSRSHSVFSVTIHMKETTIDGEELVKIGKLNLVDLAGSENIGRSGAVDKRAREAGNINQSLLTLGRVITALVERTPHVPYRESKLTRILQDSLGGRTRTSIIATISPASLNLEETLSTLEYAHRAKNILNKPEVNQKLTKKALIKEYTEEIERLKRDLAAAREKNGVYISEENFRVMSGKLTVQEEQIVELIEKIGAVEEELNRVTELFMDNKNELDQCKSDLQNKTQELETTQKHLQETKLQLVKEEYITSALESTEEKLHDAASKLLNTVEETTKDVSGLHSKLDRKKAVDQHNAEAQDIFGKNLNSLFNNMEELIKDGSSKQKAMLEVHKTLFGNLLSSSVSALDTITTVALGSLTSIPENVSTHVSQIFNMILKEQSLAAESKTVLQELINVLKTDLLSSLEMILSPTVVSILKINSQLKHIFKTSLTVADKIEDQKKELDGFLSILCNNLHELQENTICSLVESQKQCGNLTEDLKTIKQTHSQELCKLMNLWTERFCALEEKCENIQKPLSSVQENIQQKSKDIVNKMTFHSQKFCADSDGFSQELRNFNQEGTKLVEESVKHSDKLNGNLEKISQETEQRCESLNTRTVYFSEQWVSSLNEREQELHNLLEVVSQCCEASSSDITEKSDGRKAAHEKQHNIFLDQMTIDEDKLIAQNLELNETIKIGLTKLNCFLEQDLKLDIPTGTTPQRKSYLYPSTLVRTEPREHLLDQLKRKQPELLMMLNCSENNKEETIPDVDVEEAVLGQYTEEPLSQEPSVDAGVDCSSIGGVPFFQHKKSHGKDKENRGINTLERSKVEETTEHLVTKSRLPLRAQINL
UniProt Q9HAU4: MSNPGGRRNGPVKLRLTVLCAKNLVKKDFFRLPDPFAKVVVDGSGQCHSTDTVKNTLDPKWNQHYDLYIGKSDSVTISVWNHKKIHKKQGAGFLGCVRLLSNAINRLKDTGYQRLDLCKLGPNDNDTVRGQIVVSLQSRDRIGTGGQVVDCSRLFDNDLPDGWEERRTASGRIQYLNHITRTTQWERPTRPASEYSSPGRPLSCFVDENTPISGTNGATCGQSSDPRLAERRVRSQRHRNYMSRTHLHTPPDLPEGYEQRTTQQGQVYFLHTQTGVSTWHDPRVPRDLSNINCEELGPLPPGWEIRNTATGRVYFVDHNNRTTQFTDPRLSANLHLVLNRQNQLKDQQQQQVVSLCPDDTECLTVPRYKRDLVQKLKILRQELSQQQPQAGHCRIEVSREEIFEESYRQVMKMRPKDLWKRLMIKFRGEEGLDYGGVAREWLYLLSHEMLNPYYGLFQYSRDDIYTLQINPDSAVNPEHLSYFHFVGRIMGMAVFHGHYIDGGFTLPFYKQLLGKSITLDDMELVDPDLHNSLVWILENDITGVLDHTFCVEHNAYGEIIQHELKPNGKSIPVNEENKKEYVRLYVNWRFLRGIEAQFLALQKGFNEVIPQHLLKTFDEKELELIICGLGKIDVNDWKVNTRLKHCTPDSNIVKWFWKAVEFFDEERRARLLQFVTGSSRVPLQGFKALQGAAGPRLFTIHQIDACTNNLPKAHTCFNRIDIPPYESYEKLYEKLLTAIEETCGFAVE

Tests used:
Assay in all cases: co-IP; endogenous proteins in MCF-7 (and, for TRAF4 with Eg5, MDA-MB-231) cell lysates; antibodies against TRAF4, Eg5 or Smurf2, agarose A/G beads, 4°C, immunoblotting; for Smurf2 with Eg5 also after TRAF4 si-RNA
[1] = target: Eg5 (human (endogenous in MCF-7 and MDA-MB-231)) (UniProt P52732)
[2] = target: Eg5 (human (endogenous in MCF-7 and MDA-MB-231)) (UniProt P52732); remark: listed apart in the source
[3] = target: Smurf2 (human (endogenous in MCF-7)) (UniProt Q9HAU4)

binding [1]: binds
Molecule: Smurf2 (from UniProt Q9HAU4 1-748)

binding [2]: binds
binding [3]: binds
B1: Tumor necrosis factor receptor associated factor 4 (TRAF4) (protein, UniProt Q9BUZ4 1-470)
chain: MPGFDYKFLEKPKRRLLCPLCGKPMREPVQVSTCGHRFCDTCLQEFLSEGVFKCPEDQLPLDYAKIYPDPELEVQVLGLPIRCIHSEEGCRWSGPLRHLQGHLNTCSFNVIPCPNRCPMKLSRRDLPAHLQHDCPKRRLKCEFCGCDFSGEAYESHEGMCPQESVYCENKCGARMMRRLLAQHATSECPKRTQPCTYCTKEFVFDTIQSHQYQCPRLPVACPNQCGVGTVAREDLPGHLKDSCNTALVLCPFKDSGCKHRCPKLAMARHVEESVKPHLAMMCALVSRQRQELQELRRELEELSVGSDGVLIWKIGSYGRRLQEAKAKPNLECFSPAFYTHKYGYKLQVSAFLNGNGSGEGTHLSLYIRVLPGAFDNLLEWPFARRVTFSLLDQSDPGLAKPQHVTETFHPDPNWKNFQKPGTWRGSLDESSLGFGYPKFISHQDIRKRNYVRDDAVFIRAAVELPRKILS
